# From the supplement of paper PMC8728848
# Some of the results follow.
# Experiments:
# Assay in all cases: glycan array binding signal (z-score within array); higher = stronger binding
# Conditions in all cases: glycan notation: IUPAC condensed, linker removed
# [1] = target: Fuc(a1-2)[GalNAc(a1-3)]Gal(b1-3)GalNAc(b1-3)Gal(a1-4)Gal(b1-4)Glc
# In short: (§1)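 Negative Z-scores can be read as non-binding. The Z-score is calculated within each array and then averaged across arrays of one protein sequence at different concentrations or buffers and across linkers. Arrays, 3228 in all, were curated from the Consortium for Functional Glycomics database and kept only where the protein sequence was available.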
# [2] = target: Fuc(a1-2)[GalNAc(a1-3)]Gal(b1-3)GlcNAc
# In short: as §1
# [3] = target: Fuc(a1-2)[GalNAc(a1-3)]Gal(b1-3)GlcNAc(b1-2)Man(a1-3)[Fuc(a1-2)[GalNAc(a1-3)]Gal(b1-3)GlcNAc(b1-2)Man(a1-6)]Man(b1-4)GlcNAc(b1-4)GlcNAc
# In short: as §1
# [4] = target: Fuc(a1-2)[GalNAc(a1-3)]Gal(b1-3)GlcNAc(b1-2)Man(a1-3)[Fuc(a1-2)[GalNAc(a1-3)]Gal(b1-3)GlcNAc(b1-2)Man(a1-6)]Man(b1-4)GlcNAc(b1-4)[Fuc(a1-6)]GlcNAc
# In short: as §1
# [5] = target: Fuc(a1-2)[GalNAc(a1-3)]Gal(b1-3)GlcNAc(b1-3)GalNAc
# In short: as §1
# [6] = target: Fuc(a1-2)[GalNAc(a1-3)]Gal(b1-3)GlcNAc(b1-6)GalNAc
# In short: as §1
# [7] = target: Fuc(a1-2)[GalNAc(a1-3)]Gal(b1-4)Glc
# In short: as §1
# [8] = target: Fuc(a1-2)[GalNAc(a1-3)]Gal(b1-4)GlcNAc
# In short: as §1
# [9] = target: Fuc(a1-2)[GalNAc(a1-3)]Gal(b1-4)GlcNAc(b1-2)Man
# In short: as §1
# [10] = target: Fuc(a1-2)[GalNAc(a1-3)]Gal(b1-4)GlcNAc(b1-2)Man(a1-3)[Fuc(a1-2)[GalNAc(a1-3)]Gal(b1-4)GlcNAc(b1-2)Man(a1-6)]Man(b1-4)GlcNAc(b1-4)GlcNAc
# In short: as §1
# [11] = target: Fuc(a1-2)[GalNAc(a1-3)]Gal(b1-4)GlcNAc(b1-2)Man(a1-3)[Fuc(a1-2)[GalNAc(a1-3)]Gal(b1-4)GlcNAc(b1-2)Man(a1-6)]Man(b1-4)GlcNAc(b1-4)[Fuc(a1-6)]GlcNAc
# In short: as §1
# [12] = target: Fuc(a1-2)[GalNAc(a1-3)]Gal(b1-4)GlcNAc(b1-2)Man(a1-3)[GalNAc(a1-3)[Fuc(a1-2)]Gal(b1-4)GlcNAc(b1-2)Man(a1-6)]Man(b1-4)GlcNAc(b1-4)GlcNAc
# In short: as §1
# [13] = target: Fuc(a1-2)[GalNAc(a1-3)]Gal(b1-4)GlcNAc(b1-3)Gal(b1-4)GlcNAc
# In short: as §1
# [14] = target: Fuc(a1-2)[GalNAc(a1-3)]Gal(b1-4)GlcNAc(b1-3)Gal(b1-4)GlcNAc(b1-3)Gal(b1-4)GlcNAc
# In short: as §1
# [15] = target: Fuc(a1-2)[GalNAc(a1-3)]Gal(b1-4)GlcNAc(b1-3)GalNAc
# In short: as §1
# [16] = target: Fuc(a1-2)[GalNAc(a1-3)]Gal(b1-4)GlcNAc(b1-3)[Fuc(a1-2)[GalNAc(a1-3)]Gal(b1-4)GlcNAc(b1-6)]GalNAc
# In short: as §1
# [17] = target: Fuc(a1-2)[GalNAc(a1-3)]Gal(b1-4)GlcNAc(b1-6)GalNAc
# In short: as §1
# [18] = target: Fuc(a1-2)[GalNAc(a1-3)]Gal(b1-4)[Fuc(a1-3)]GlcNAc
# In short: as §1
# [19] = target: Fuc(a1-2)[GalNAc(a1-3)]Gal(b1-4)[Fuc(a1-3)]GlcNAc(b1-3)GalNAc
# In short: as §1
# [20] = target: Fuc(a1-2)[GalNAc(a1-4)]Gal(b1-4)GlcNAc
# In short: as §1
# [21] = target: Fuc(a1-2)[GalNAc(b1-3)]Gal
# In short: as §1
# Fuc(a1-3)GlcNAc = target: Fuc(a1-3)GlcNAc
# In short: as §1
# [22] = target: Fuc(a1-3)[Gal(b1-4)]Glc6S
# In short: as §1
# [23] = target: Fuc(a1-3)[Gal(b1-4)]GlcNAc
# In short: as §1
# [24] = target: Fuc(a1-3)[Gal(b1-4)]GlcNAc(b1-2)Man
# In short: as §1
# [25] = target: Fuc(a1-3)[Gal(b1-4)]GlcNAc(b1-2)Man(a1-3)[Fuc(a1-3)[Gal(b1-4)]GlcNAc(b1-2)Man(a1-6)]Man(b1-4)GlcNAc(b1-4)GlcNAc
# In short: as §1
# [26] = target: Fuc(a1-3)[Gal(b1-4)]GlcNAc(b1-2)Man(a1-3)[Fuc(a1-3)[Gal(b1-4)]GlcNAc(b1-2)Man(a1-6)]Man(b1-4)GlcNAc(b1-4)[Fuc(a1-6)]GlcNAc
# In short: as §1
# [27] = target: Fuc(a1-3)[Gal(b1-4)]GlcNAc(b1-2)Man(a1-6)[Gal(b1-4)GlcNAc(b1-2)Man(a1-3)]Man(b1-4)GlcNAc(b1-4)GlcNAc
# In short: as §1
# [28] = target: Fuc(a1-3)[Gal(b1-4)]GlcNAc(b1-3)Gal(b1-3)[Fuc(a1-4)]GlcNAc
# In short: as §1
# [29] = target: Fuc(a1-3)[Gal(b1-4)]GlcNAc(b1-3)Gal(b1-4)[Fuc(a1-3)]GlcNAc
# In short: as §1
# [30] = target: Fuc(a1-3)[Gal(b1-4)]GlcNAc(b1-3)Gal(b1-4)[Fuc(a1-3)]GlcNAc(b1-3)Gal(b1-4)[Fuc(a1-3)]GlcNAc
# In short: as §1
# [31] = target: Fuc(a1-3)[Gal(b1-4)]GlcNAc(b1-3)GalNAc
# In short: as §1
# [32] = target: Fuc(a1-3)[Gal(b1-4)]GlcNAc(b1-4)Gal(b1-4)[Fuc(a1-3)]GlcNAc
# In short: as §1
# [33] = target: Fuc(a1-3)[Gal(b1-4)]GlcNAc(b1-4)Gal(b1-4)[Fuc(a1-3)]GlcNAc(b1-4)Gal(b1-4)[Fuc(a1-3)]GlcNAc
# In short: as §1
# [34] = target: Fuc(a1-3)[Gal(b1-4)]GlcNAc(b1-6)GalNAc
# In short: as §1
# [35] = target: Fuc(a1-3)[Gal(b1-4)]GlcNAc(b1-6)[Gal(b1-3)GlcNAc(b1-3)]Gal(b1-4)Glc
# In short: as §1
# [36] = target: Fuc(a1-3)[Gal(b1-4)]GlcNAc6S
# In short: as §1
# [37] = target: Fuc(a1-3)[Gal3S(b1-4)]Glc
# In short: as §1
# [38] = target: Fuc(a1-3)[Gal3S(b1-4)]Glc6S
# In short: as §1
# [39] = target: Fuc(a1-3)[Gal3S(b1-4)]GlcNAc
# In short: as §1
# [40] = target: Fuc(a1-3)[Gal3S(b1-4)]GlcNAc6S
# In short: as §1
# [41] = target: Fuc(a1-3)[GalNAc(b1-4)]GlcNAc
# In short: as §1
# [42] = target: Fuc(a1-3)[GalNAc(b1-4)]GlcNAc6S
# In short: as §1
# [43] = target: Fuc(a1-3)[Neu5Ac(a2-3)]Gal(b1-4)GlcNAc(b1-3)GalNAc
# In short: as §1
# Fuc(a1-4)GlcNAc = target: Fuc(a1-4)GlcNAc
# In short: as §1
binder,measurement,setting,value
"BabA (Helicobacter pylori), O52269_HELPY (protein) AEDDGFYMSAGYQIGEAAQMVKNTKGIQELSDNYENLSNLLTRYSTLNTLIKLSADPSAVNAARENLGASAKNLIGDTKNSPAYQAVLLAINAAVGFWNVVGYVTQCGGNANGQKSTSSTTIFNNEPGYRSTSITCSLNGHMPGYYGPMSIENFKKLNEAYQILQTALKNGLPALKENNGTVNVTYSYTCSGEGNDNCSLQTTGVTNQNNGTKTETQTIDGKSVTTTISSKVVDSQ",glycan array binding signal (z-score),[1],0.063
same,glycan array binding signal (z-score),[2],-0.233
same,glycan array binding signal (z-score),[3],-0.767
same,glycan array binding signal (z-score),[4],-0.219
same,glycan array binding signal (z-score),[5],0.354
same,glycan array binding signal (z-score),[6],-0.709
same,glycan array binding signal (z-score),[7],-0.039
same,glycan array binding signal (z-score),[8],-0.47
same,glycan array binding signal (z-score),[9],0.626
same,glycan array binding signal (z-score),[10],-0.155
same,glycan array binding signal (z-score),[11],0.59
same,glycan array binding signal (z-score),[12],-0.893
same,glycan array binding signal (z-score),[13],-0.624
same,glycan array binding signal (z-score),[14],-0.054
same,glycan array binding signal (z-score),[15],-0.6
same,glycan array binding signal (z-score),[16],-0.637
same,glycan array binding signal (z-score),[17],-0.618
same,glycan array binding signal (z-score),[18],0.309
same,glycan array binding signal (z-score),[19],-0.164
same,glycan array binding signal (z-score),[20],-0.727
same,glycan array binding signal (z-score),[21],-0.45
same,glycan array binding signal (z-score),Fuc(a1-3)GlcNAc,-0.059
same,glycan array binding signal (z-score),[22],0.843
same,glycan array binding signal (z-score),[23],-0.421
same,glycan array binding signal (z-score),[24],-0.146
same,glycan array binding signal (z-score),[25],-0.812
same,glycan array binding signal (z-score),[26],0.099
same,glycan array binding signal (z-score),[27],-1.52
same,glycan array binding signal (z-score),[28],0.248
same,glycan array binding signal (z-score),[29],0.417
same,glycan array binding signal (z-score),[30],-0.282
same,glycan array binding signal (z-score),[31],-0.319
same,glycan array binding signal (z-score),[32],0.227
same,glycan array binding signal (z-score),[33],-1.36
same,glycan array binding signal (z-score),[34],0.063
same,glycan array binding signal (z-score),[35],0.017
same,glycan array binding signal (z-score),[36],1.91
same,glycan array binding signal (z-score),[37],-0.137
same,glycan array binding signal (z-score),[38],-0.386
same,glycan array binding signal (z-score),[39],-0.018
same,glycan array binding signal (z-score),[40],0.395
same,glycan array binding signal (z-score),[41],0.578
same,glycan array binding signal (z-score),[42],-0.664
same,glycan array binding signal (z-score),[43],-0.984
same,glycan array binding signal (z-score),Fuc(a1-4)GlcNAc,-0.389

# Some of the entries above, reformatted.
binder | measurement | setting | value
BabA (Helicobacter pylori), O52269_HELPY (protein) AEDDGFYMSAGYQIGEAAQMVKNTKGIQELSDNYENLSNLLTRYSTLNTLIKLSADPSAVNAARENLGASAKNLIGDTKNSPAYQAVLLAINAAVGFWNVVGYVTQCGGNANGQKSTSSTTIFNNEPGYRSTSITCSLNGHMPGYYGPMSIENFKKLNEAYQILQTALKNGLPALKENNGTVNVTYSYTCSGEGNDNCSLQTTGVTNQNNGTKTETQTIDGKSVTTTISSKVVDSQ | glycan array binding signal (z-score) | [4] | -0.219
same | glycan array binding signal (z-score) | [5] | 0.354
